B1: Keratin, type I cytoskeletal 9 (protein, UniProt P35527 1-623, looked up)
Keratin, type I cytoskeletal 9: MSCRQFSSSYLSRSGGGGGGGLGSGGSIRSSYSRFSSSGGGGGGGRFSSSSGYGGGSSRVCGRGGGGSFGYSYGGGSGGGFSASSLGGGFGGGSRGFGGASGGGYSSSGGFGGGFGGGSGGGFGGGYGSGFGGFGGFGGGAGGGDGGILTANEKSTMQELNSRLASYLDKVQALEEANNDLENKIQDWYDKKGPAAIQKNYSPYYNTIDDLKDQIVDLTVGNNKTLLDIDNTRMTLDDFRIKFEMEQNLRQGVDADINGLRQVLDNLTMEKSDLEMQYETLQEELMALKKNHKEEMSQLTGQNSGDVNVEINVAPGKDLTKTLNDMRQEYEQLIAKNRKDIENQYETQITQIEHEVSSSGQEVQSSAKEVTQLRHGVQELEIELQSQLSKKAALEKSLEDTKNRYCGQLQMIQEQISNLEAQITDVRQEIECQNQEYSLLLSIKMRLEKEIETYHNLLEGGQEDFESSGAGKIGLGGRGGSGGSYGRGSRGGSGGSYGGGGSGGGYGGGSGSRGGSGGSYGGGSGSGGGSGGGYGGGSGGGHSGGSGGGHSGGSGGNYGGGSGSGGGSGGGYGGGSGSRGGSGGSHGGGSGFGGESGGSYGGGEEASGSGGGYGGGSGKSSHS
B2: Tetratricopeptide repeat protein 17 (protein, UniProt Q96AE7 1-1141, looked up)
Tetratricopeptide repeat …: MAAAVGVRGRYELPPCSGPGWLLSLSALLSVAARGAFATTHWVVTEDGKIQQQVDSPMNLKHPHDLVILMRQEATVNYLKELEKQLVAQKIHIEENEDRDTGLEQRHNKEDPDCIKAKVPLGDLDLYDGTYITLESKDISPEDYIDTESPVPPDPEQPDCTKILELPYSIHAFQHLRGVQERVNLSAPLLPKEDPIFTYLSKRLGRSIDDIGHLIHEGLQKNTSSWVLYNMASFYWRIKNEPYQVVECAMRALHFSSRHNKDIALVNLANVLHRAHFSADAAVVVHAALDDSDFFTSYYTLGNIYAMLGEYNHSVLCYDHALQARPGFEQAIKRKHAVLCQQKLEQKLEAQHRSLQRTLNELKEYQKQHDHYLRQQEILEKHKLIQEEQILRNIIHETQMAKEAQLGNHQICRLVNQQHSLHCQWDQPVRYHRGDIFENVDYVQFGEDSSTSSMMSVNFDVQSNQSDINDSVKSSPVAHSILWIWGRDSDAYRDKQHILWPKRADCTESYPRVPVGGELPTYFLPPENKGLRIHELSSDDYSTEEEAQTPDCSITDFRKSHTLSYLVKELEVRMDLKAKMPDDHARKILLSRINNYTIPEEEIGSFLFHAINKPNAPIWLILNEAGLYWRAVGNSTFAIACLQRALNLAPLQYQDVPLVNLANLLIHYGLHLDATKLLLQALAINSSEPLTFLSLGNAYLALKNISGALEAFRQALKLTTKCPECENSLKLIRCMQFYPFLYNITSSVCSGTVVEESNGSDEMENSDETKMSEEILALVDEFQQAWPLEGFGGALEMKGRRLDLQGIRVLKKGPQDGVARSSCYGDCRSEDDEATEWITFQVKRVKKPKGDHKKTPGKKVETGQIENGHRYQANLEITGPKVASPGPQGKKRDYQRLGWPSPDECLKLRWVELTAIVSTWLAVSSKNIDITEHIDFATPIQQPAMEPLCNGNLPTSMHTLDHLHGVSNRASLHYTGESQLTEVLQNLGKDQYPQQSLEQIGTRIAKVLEKNQTSWVLSSMAALYWRVKGQGKKAIDCLRQALHYAPHQMKDVPLISLANILHNAKLWNDAVIVATMAVEIAPHFAVNHFTLGNVYVAMEEFEKALVWYESTLKLQPEFVPAKNRIQTIQCHLMLKKGRRSP
B3: Keratin, type I cytoskeletal 10 (protein, UniProt P13645 1-584, looked up)
Keratin, type I cytoskeletal …: MSVRYSSSKHYSSSRSGGGGGGGGCGGGGGVSSLRISSSKGSLGGGFSSGGFSGGSFSRGSSGGGCFGGSSGGYGGLGGFGGGSFRGSYGSSSFGGSYGGIFGGGSFGGGSFGGGSFGGGGFGGGGFGGGFGGGFGGDGGLLSGNEKVTMQNLNDRLASYLDKVRALEESNYELEGKIKEWYEKHGNSHQGEPRDYSKYYKTIDDLKNQILNLTTDNANILLQIDNARLAADDFRLKYENEVALRQSVEADINGLRRVLDELTLTKADLEMQIESLTEELAYLKKNHEEEMKDLRNVSTGDVNVEMNAAPGVDLTQLLNNMRSQYEQLAEQNRKDAEAWFNEKSKELTTEIDNNIEQISSYKSEITELRRNVQALEIELQSQLALKQSLEASLAETEGRYCVQLSQIQAQISALEEQLQQIRAETECQNTEYQQLLDIKIRLENEIQTYRSLLEGEGSSGGGGRGGGSFGGGYGGGSSGGGSSGGGHGGGHGGSSGGGYGGGSSGGGSSGGGYGGGSSSGGHGGSSSGGYGGGSSGGGGGGYGGGSSGGGSSSGGGYGGGSSSGGHKSSSSGSVGESSSKGPRY
B4: Collagen alpha-1(XV) chain (protein, UniProt P39059 28-1388, looked up)
Collagen alpha-1(XV) chain: QTRGATETASQGHLDLTQLIGVPLPSSVSFVTGYGGFPAYSFGPGANVGRPARTLIPSTFFRDFAISVVVKPSSTRGGVLFAITDAFQKVIYLGLRLSGVEDGHQRIILYYTEPGSHVSQEAAAFSVPVMTHRWNRFAMIVQGEEVTLLVNCEEHSRIPFQRSSQALAFESSAGIFMGNAGATGLERFTGSLQQLTVHPDPRTPEELCDPEESSASGETSGLQEADGVAEILEAVTYTQASPKEAKVEPINTPPTPSSPFEDMELSGEPVPEGTLETTNMSIIQHSSPKQGSGEILNDTLEGVHSVDGDPITDSGSGAGAFLDIAEEKNLAATAAGLAEVPISTAGEAEASSVPTGGPTLSMSTENPEEGVTPGPDNEERLAATAAGEAEALASMPGEVEASGVAPGELDLSMSAQSLGEEATVGPSSEDSLTTAAAATEVSLSTFEDEEASGVPTDGLAPLTATMAPERAVTSGPGDEEDLAAATTEEPLITAGGEESGSPPPDGPPLPLPTVAPERWITPAQREHVGMKGQAGPKGEKGDAGEELPGPPEPSGPVGPTAGAEAEGSGLGWGSDVGSGSGDLVGSEQLLRGPPGPPGPPGLPGIPGKPGTDVFMGPPGSPGEDGPAGEPGPPGPEGQPGVDGATGLPGMKGEKGARGPNGSVGEKGDPGNRGLPGPPGKKGQAGPPGVMGPPGPPGPPGPPGPGCTMGLGFEDTEGSGSTQLLNEPKLSRPTAAIGLKGEKGDRGPKGERGMDGASIVGPPGPRGPPGHIKVLSNSLINITHGFMNFSDIPELVGPPGPDGLPGLPGFPGPRGPKGDTGLPGFPGLKGEQGEKGEPGAILTEDIPLERLMGKKGEPGMHGAPGPMGPKGPPGHKGEFGLPGRPGRPGLNGLKGTKGDPGVIMQGPPGLPGPPGPPGPPGAVINIKGAIFPIPVRPHCKMPVDTAHPGSPELITFHGVKGEKGSWGLPGSKGEKGDQGAQGPPGPPLDLAYLRHFLNNLKGENGDKGFKGEKGEKGDINGSFLMSGPPGLPGNPGPAGQKGETVVGPQGPPGAPGLPGPPGFGRPGDPGPPGPPGPPGPPAILGAAVALPGPPGPPGQPGLPGSRNLVTAFSNMDDMLQKAHLVIEGTFIYLRDSTEFFIRVRDGWKKLQLGELIPIPADSPPPPALSSNPHQLLPPPNPISSANYEKPALHLAALNMPFSGDIRADFQCFKQARAAGLLSTYRAFLSSHLQDLSTIVRKAERYSLPIVNLKGQVLFNNWDSIFSGHGGQFNMHIPIYSFDGRDIMTDPSWPQKVIWHGSSPHGVRLVDNYCEAWRTADTAVTGLASPLSTGKILDQKAYSCANRLIVLCIENSFMTDARK
B5: Heat shock protein beta-11 (protein, UniProt Q9Y547 1-144, looked up)
Intraflagellar transport …: MRKIDLCLSSEGSEVILATSSDEKHPPENIIDGNPETFWTTTGMFPQEFIICFHKHVRIERLVIQSYFVQTLKIEKSTSKEPVDFEQWIEKDLVHTEGQLQNEEIVAHDGSATYLRFIIVSAFDHFASVHSVSAEGTVVSNLSS
B6: Folate receptor gamma (protein, UniProt P41439 23-245, looked up)
Folate receptor gamma: QPRSARARTDLLNVCMNAKHHKTQPSPEDELYGQCSPWKKNACCTASTSQELHKDTSRLYNFNWDHCGKMEPTCKRHFIQDSCLYECSPNLGPWIRQVNQSWRKERILNVPLCKEDCERWWEDCRTSYTCKSNWHKGWNWTSGINECPAGALCSTFESYFPTPAALCEGLWSHSFKVSNYSRGSGRCIQMWFDSAQGNPNEEVAKFYAAAMNAGAPSRGIIDS
B7: Elongation factor 1-alpha 1 (protein, UniProt P68104 2-462, looked up)
Elongation factor 1-alpha 1: GKEKTHINIVVIGHVDSGKSTTTGHLIYKCGGIDKRTIEKFEKEAAEMGKGSFKYAWVLDKLKAERERGITIDISLWKFETSKYYVTIIDAPGHRDFIKNMITGTSQADCAVLIVAAGVGEFEAGISKNGQTREHALLAYTLGVKQLIVGVNKMDSTEPPYSQKRYEEIVKEVSTYIKKIGYNPDTVAFVPISGWNGDNMLEPSANMPWFKGWKVTRKDGNASGTTLLEALDCILPPTRPTDKPLRLPLQDVYKIGGIGTVPVGRVETGVLKPGMVVTFAPVNVTTEVKSVEMHHEALSEALPGDNVGFNVKNVSVKDVRRGNVAGDSKNDPPMEAAGFTAQVIILNHPGQISAGYAPVLDCHTAHIACKFAELKEKIDRRSGKKLEDGPKFLKSGDAAIVDMVPGKPMCVESFSDYPPLGRFAVRDMRQTVAVGVIKAVDKKAAGAGKVTKSAQKAQKAK
B8: Gamma-glutamyl hydrolase (protein, UniProt Q92820 25-318, looked up)
Gamma-glutamyl hydrolase: RPHGDTAKKPIIGILMQKCRNKVMKNYGRYYIAASYVKYLESAGARVVPVRLDLTEKDYEILFKSINGILFPGGSVDLRRSDYAKVAKIFYNLSIQSFDDGDYFPVWGTCLGFEELSLLISGECLLTATDTVDVAMPLNFTGGQLHSRMFQNFPTELLLSLAVEPLTANFHKWSLSVKNFTMNEKLKKFFNVLTTNTDGKIEFISTMEGYKYPVYGVQWHPEKAPYEWKNLDGISHAPNAVKTAFYLAEFFVNEARKNNHHFKSESEEEKALIYQFSPIYTGNISSFQQCYIFD
B9: Inter-alpha-trypsin inhibitor heavy chain H1 (protein, UniProt P19827 35-672, looked up)
Inter-alpha-trypsin inhibitor …: SKSSEKRQAVDTAVDGVFIRSLKVNCKVTSRFAHYVVTSQVVNTANEAREVAFDLEIPKTAFISDFAVTADGNAFIGDIKDKVTAWKQYRKAAISGENAGLVRASGRTMEQFTIHLTVNPQSKVTFQLTYEEVLKRNHMQYEIVIKVKPKQLVHHFEIDVDIFEPQGISKLDAQASFLPKELAAQTIKKSFSGKKGHVLFRPTVSQQQSCPTCSTSLLNGHFKVTYDVSRDKICDLLVANNHFAHFFAPQNLTNMNKNVVFVIDISGSMRGQKVKQTKEALLKILGDMQPGDYFDLVLFGTRVQSWKGSLVQASEANLQAAQDFVRGFSLDEATNLNGGLLRGIEILNQVQESLPELSNHASILIMLTDGDPTEGVTDRSQILKNVRNAIRGRFPLYNLGFGHNVDFNFLEVMSMENNGRAQRIYEDHDATQQLQGFYSQVAKPLLVDVDLQYPQDAVLALTQNHHKQYYEGSEIVVAGRIADNKQSSFKADVQAHGEGQEFSITCLVDEEEMKKLLRERGHMLENHVERLWAYLTIQELLAKRMKVDREERANLSSQALQMSLDYGFVTPLTSMSIRGMADQDGLKPTIDKPSEDSPPLEMLGPRRTFVLSALQPSPTHSSSNTQRLPDRVTGVDTD
B10: D-dopachrome decarboxylase (protein, UniProt P30046 2-118, looked up)
D-dopachrome decarboxylase: PFLELDTNLPANRVPAGLEKRLCAAAASILGKPADRVNVTVRPGLAMALSGSTEPCAQLSISSIGVVGTAEDNRSHSAHFFEFLTKELALGQDRILIRFFPLESWQIGKIGTVMTFL

Assay: RRT study: LC-MS/MS urinary proteomics, AKI after cardiac surgery, RRT vs No RRT
Parameters: species or system human
Details: patients who did vs did not require RRT/dialysis
[1] = direction of differential abundance

Molecule | Up or Down [1] | Mean Fold Change | Up or Down (direction of urinary abundance)
B1 | Down | 2.181 | 
B2 |  |  | Up
B3 | Down | 3.109 | 
B4 |  |  | Up
B5 |  |  | Up
B6 |  |  | Up
B7 |  |  | Up
B8 |  |  | Up
B9 |  |  | Up
B10 |  |  | Up

Reference: patent US20140038203A1, “METHODS FOR DETECTING OR PREDICTING KIDNEY DISEASE” (MUSC FOUNDATION FOR RESEARCH DEVELOPMENT, priority 2012, published 2014)
